# Cleaved PARP in drug-treated melanoma cells

Data from the primary screen of doi:10.1371/journal.pone.0140310, rounded.

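Human melanoma cells were exposed to two drugs together for 72 h in 1,536-well plates and read by automated microscopy after fixing and staining. Each value is the cleaved-PARP-positive fraction of nuclei relative to DMSO-treated wells, in %, so that 100 equals the control and higher values mean more apoptosis. Concentrations were fixed for each drug; these are the higher of two levels. The file gives one value for each pair and line, without errors, so small differences may be noise. Basal and induced levels differ widely between cell lines.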 An unselected part of the screen is shown. A dash means that no value is listed here.

Drugs:
PF-562271, 0.4 µM: CN(c1ncccc1CNc1nc(Nc2ccc3c(c2)CC(=O)N3)ncc1C(F)(F)F)S(C)(=O)=O
cediranib, 2 µM: COc1cc2c(Oc3ccc4[nH]c(C)cc4c3F)ncnc2cc1OCCCN1CCCC1
MK-1775, 0.1 µM: C=CCn1c(=O)c2cnc(Nc3ccc(N4CCN(C)CC4)cc3)nc2n1-c1cccc(C(C)(C)O)n1
PLX4720, 0.4 µM: CCCS(=O)(=O)Nc1ccc(F)c(C(=O)c2c[nH]c3ncc(Cl)cc23)c1F
crizotinib, 1 µM: C[C@@H](Oc1cc(-c2cnn(C3CCNCC3)c2)cnc1N)c1c(Cl)ccc(F)c1Cl
CX-4945, 2 µM: O=C(O)c1ccc2c(c1)nc(Nc1cccc(Cl)c1)c1ccncc12
lenalidomide, 5 µM: Nc1cccc2c1CN(C1CCC(=O)NC1=O)C2=O (stereo not shown)
midostaurin, 0.4 µM: CO[C@@H]1[C@H](N(C)C(=O)c2ccccc2)C[C@H]2O[C@]1(C)n1c3ccccc3c3c4c(c5c6ccccc6n2c5c31)C(=O)NC4
everolimus, 0.1 µM: CO[C@H]1C[C@@H]2CC[C@@H](C)[C@@](O)(O2)C(=O)C(=O)N2CCCC[C@H]2C(=O)O[C@H]([C@H](C)C[C@@H]2CC[C@@H](OCCO)[C@H](OC)C2)CC(=O)[C@H](C)/C=C(\C)[C@@H](O)[C@@H](OC)C(=O)[C@H](C)C[C@H](C)/C=C/C=C/C=C/1C
gemcitabine, 0.002 µM: Nc1ccn([C@@H]2O[C@H](CO)[C@@H](O)C2(F)F)c(=O)n1
LFM-A13, 10 µM: C/C(O)=C(\C#N)C(=O)Nc1cc(Br)ccc1Br
nilutamide, 5 µM: CC1(C)NC(=O)N(c2ccc([N+](=O)[O-])c(C(F)(F)F)c2)C1=O
Src-I1, 10 µM: COc1cc2ncnc(Nc3ccc(Oc4ccccc4)cc3)c2cc1OC
pazopanib, 2 µM: Cc1ccc(Nc2nccc(N(C)c3ccc4c(C)n(C)nc4c3)n2)cc1S(N)(=O)=O
AZD7762, 0.1 µM: NC(=O)Nc1cc(-c2cccc(F)c2)sc1C(=O)N[C@H]1CCCNC1
perifosine, 2 µM: CCCCCCCCCCCCCCCCCCOP(=O)([O-])OC1CC[N+](C)(C)CC1
GW441756, 2 µM: Cn1cc(/C=C2\C(=O)Nc3cccnc32)c2ccccc21
JZL184, 5 µM: O=C(Oc1ccc([N+](=O)[O-])cc1)N1CCC(C(O)(c2ccc3c(c2)OCO3)c2ccc3c(c2)OCO3)CC1
nilotinib, 1 µM: Cc1cn(-c2cc(NC(=O)c3ccc(C)c(Nc4nccc(-c5cccnc5)n4)c3)cc(C(F)(F)F)c2)cn1
veliparib, 7 µM: C[C@]1(c2nc3c(C(N)=O)cccc3[nH]2)CCCN1
TCS401, 8.33 µM: O=C(O)C(=O)Nc1sc2c(c1C(=O)O)CCNC2

Pair,LB2518-MEL,MEL-HO,IST-MEL1,WM451Lu,COLO 800,501mel,COLO 792,COLO 829,SK-MEL-28,UACC-257,G-361,RVH-421,LOX IMVI,A2058,A375
PLX4720 and MK-1775,148,91.4,120,454,102,-,272,150,86.8,108,313,41.2,138,282,-
LFM-A13 and midostaurin,132,121,56.8,244,226,110,71.3,82.1,355,32.9,78.8,141,138,754,196
JZL184 and everolimus,-,93.7,138,379,220,-,49.1,131,202,21.3,73.8,24.2,97.1,69.5,142
cediranib and CX-4945,160,90.0,154,226,236,-,599,161,79.4,33.8,259,51.2,138,269,-
AZD7762 and lenalidomide,126,83.0,409,117,184,-,309,120,314,68.8,103,1160,194,222,-
crizotinib and perifosine,81.1,159,118,234,150,-,156,125,215,43.0,144,210,227,198,112
pazopanib and veliparib,147,280,194,114,112,-,198,147,78.4,36.6,146,76.6,202,166,57.1
Src-I1 and lenalidomide,63.1,52.8,68.1,115,49.4,71.6,109,57.5,157,46.1,193,201,179,97.3,75.2
nilutamide and TCS401,62.4,84.5,257,32.2,151,104,95.2,59.4,143,15.7,103,37.5,164,93.2,8.2
PF-562271 and cediranib,-,160,84.4,55.9,33.9,-,103,36.9,79.9,83.1,174,141,173,72.3,-
GW441756 and gemcitabine,-,92.3,307,174,70.2,-,102,135,149,106,112,77.5,135,72.1,98.6
nilotinib and midostaurin,207,138,136,455,288,-,153,147,81.9,188,213,38.2,81.3,238,-

Repeated from the top, 2 entries:

Pair	LB2518-MEL	MEL-HO	IST-MEL1	WM451Lu	COLO 800	501mel	COLO 792	COLO 829	SK-MEL-28	UACC-257	G-361	RVH-421	LOX IMVI	A2058	A375
PLX4720 and MK-1775	148	91.4	120	454	102	-	272	150	86.8	108	313	41.2	138	282	-
LFM-A13 and midostaurin	132	121	56.8	244	226	110	71.3	82.1	355	32.9	78.8	141	138	754	196